Experimental data published in patent publication US7960389B2, “4(phenyl-piperazinyl-methyl) benzamide derivatives and their use for the treatment of pain or gastrointestinal disorders” (priority 2002, dated 2011).
Where two headings read alike, the source gives them in different places. Some entries share one result that the patent states for a list of compounds. Some compounds share one range, which may span the group rather than tell each member.

By UniProt entry, the sequences of proteins in these tests, tags left out. Where a name states a change or a piece, a line headed by the entry shows the natural chain unless it says otherwise.
UniProt P35372, whole entry: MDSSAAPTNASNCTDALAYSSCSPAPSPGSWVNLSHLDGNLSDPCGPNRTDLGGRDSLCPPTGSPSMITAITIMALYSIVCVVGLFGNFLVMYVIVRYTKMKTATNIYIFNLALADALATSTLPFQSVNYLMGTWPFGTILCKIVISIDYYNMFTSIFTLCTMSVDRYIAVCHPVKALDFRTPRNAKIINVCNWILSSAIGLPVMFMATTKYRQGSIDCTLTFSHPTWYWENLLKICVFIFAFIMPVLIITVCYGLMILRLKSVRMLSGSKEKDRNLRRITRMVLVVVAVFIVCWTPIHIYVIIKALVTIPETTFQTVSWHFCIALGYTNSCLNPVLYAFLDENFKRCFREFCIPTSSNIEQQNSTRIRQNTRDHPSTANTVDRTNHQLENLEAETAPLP
UniProt P33533, whole entry: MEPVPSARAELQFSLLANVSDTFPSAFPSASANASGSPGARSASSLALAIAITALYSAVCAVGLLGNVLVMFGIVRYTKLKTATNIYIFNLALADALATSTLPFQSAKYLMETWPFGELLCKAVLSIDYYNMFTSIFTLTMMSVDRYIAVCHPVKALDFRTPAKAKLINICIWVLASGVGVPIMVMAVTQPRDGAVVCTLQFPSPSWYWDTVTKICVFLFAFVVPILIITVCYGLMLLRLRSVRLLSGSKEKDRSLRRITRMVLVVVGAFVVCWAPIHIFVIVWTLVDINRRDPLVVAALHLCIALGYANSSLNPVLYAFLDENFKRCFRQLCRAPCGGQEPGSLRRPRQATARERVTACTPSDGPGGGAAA

Experiments:
human μ receptors = target: T1, human μ receptors (Homo sapiens, UniProt P35372); experiment: Binding assay, membranes of human 293S cells expressing cloned human μ receptors
T1 construct: expressed in transfected cells; host or cells: human 293S cells

[1] = target: T2, δ receptors in rat brain membranes (Rattus norvegicus, UniProt P33533); experiment: Rat brain functional assay (GTPγ35S binding, rat brain membranes); format: biochemical
T2 construct: Rat brain membranes are thawed at 37° C; from tissue; host or cells: rat brain homogenate membranes
Procedure: • A. Human 293S cells expressing cloned human κ, δ and μ receptors and neomycin resistance are grown in suspension at 37° C. and 5% CO2 in shaker flasks containing calcium-free DMEM10% FBS, 5% BCS, 0.1% Pluronic F-68, and 600 μg/ml geneticin. • B. Rat brains are weighed and rinsed in ice-cold PBS (containing 2.5 mM EDTA, pH 7.4). The brains are homogenized with a polytron for 30 sec (rat) in ice-cold lysis buffer (50 mM Tris, pH 7.0, 2.5 mM EDTA, with phenylmethylsulfonyl fluoride added just prior use to […] from a 0.5M stock in DMSO:ethanol). Membrane Preparation
The agonist activity of the compounds is measured by determining the degree to which the compounds receptor complex activates the binding of GTP to G-proteins to which the receptors are coupled. In the GTP binding assay, GTP[γ]^35S is combined with test compounds and membranes from HEK-293S cells expressing the cloned human opioid receptors or from homogenised rat and mouse brain. Agonists stimulate GTP[γ]^35S binding in these membranes. The EC50 and Emax values of compounds are determined from dose-response curves. Right shifts of the dose response curve by the delta antagonist naltrindole are performed to verify that agonist activity is mediated through delta receptors. For human δ receptor functional assays, EC50 (low) is measured when the human δ receptors used in the assay were expressed at lower levels in comparison with those used in determining EC50 (high). The Emax values were determined in relation to the standard δ agonist SNC80, i.e., higher than 100% is a compound that have better efficacy than SNC80.
Rat brain membranes are thawed at 37° C., passed 3 times through a 25-gauge blunt-end needle and diluted in the GTPγS binding (50 mM Hepes, 20 mM NaOH, 100 mM NaCl, 1 mM EDTA, 5 mM MgCl2, pH 7.4, Add fresh: 1 mM DTT, 0.1% BSA). 120 μM GDP final is added membranes dilutions. […] The basal and maximal stimulated binding are determined in absence and presence of 3 μM SNC-80

[2] = read-out: Human μ IC50; Table 1
[3] = read-out: RAT BRAIN EC50, Table 1

CCN(CC)C(=O)c1ccc([C@H](c2cccc(NC(=O)OC)c2)N2CCN(Cc3ccccc3)CC2)cc1 [Compound 1, R-Methyl 3-[(4-[(diethylamino)carbonyl]phenyl)(4-benzyl-piperazin-1-yl)methyl]phenylcarbamate] was tested, and the IC50 (human μ receptors; [2]) was 93 to 1100 nM and the EC50 [1, 3] was 0.93 to 16.7 nM.

CCN(CC)C(=O)c1ccc([C@@H](c2cccc(NC(=O)OC)c2)N2CCN(Cc3ccccc3)CC2)cc1 [Compound 2, S-Methyl 3-[(4-[(diethylamino)carbonyl]phenyl)(4-benzyl-piperazin-1-yl)methyl]phenylcarbamate] showed an IC50 (human μ receptors; [2]) of 93 to 1100 nM and an EC50 [1, 3] of 0.93 to 16.7 nM.

With CCN(CC)C(=O)c1ccc([C@@H](c2cccc(NC(=O)OC)c2)N2CCN(Cc3cccs3)CC2)cc1 [Compound 3, S-Methyl 3-{{4-[(diethylamino)carbonyl]phenyl}[4-(thien-2-ylmethyl)piperazin-1-yl]methyl}phenylcarbamate] the IC50 (human μ receptors; [2]) was 93 to 1100 nM and the EC50 [1, 3] was 0.93 to 16.7 nM.

CCN(CC)C(=O)c1ccc([C@H](c2cccc(NC(=O)OC)c2)N2CCN(Cc3cccs3)CC2)cc1 [Compound 4, R-Methyl 3-{{4-[(diethylamino)carbonyl]phenyl}[4-(thien-2-ylmethyl)piperazin-1-yl]methyl}phenylcarbamate] showed an IC50 (human μ receptors; [2]) of 93 to 1100 nM and an EC50 [1, 3] of 0.93 to 16.7 nM.

Work on CCN(CC)C(=O)c1ccc([C@@H](c2cccc(NC(=O)OC)c2)N2CCN(Cc3ccsc3)CC2)cc1 [Compound 5, S-Methyl 3-{{4-[(diethylamino)carbonyl]phenyl}[4-(thien-3-ylmethyl)piperazin-1-yl]methyl}phenylcarbamate] yielded an IC50 (human μ receptors; [2]) of 93 to 1100 nM and an EC50 [1, 3] of 0.93 to 16.7 nM.

Compound CCN(CC)C(=O)c1ccc([C@H](c2cccc(NC(=O)OC)c2)N2CCN(Cc3ccsc3)CC2)cc1 [Compound 6, R-Methyl 3-{{4-[(diethylamino)carbonyl]phenyl}[4-(thien-3-ylmethyl)piperazin-1-yl]methyl}phenylcarbamate] has an IC50 (human μ receptors; [2]) of 93 to 1100 nM and an EC50 [1, 3] of 0.93 to 16.7 nM.

Compound CCN(CC)C(=O)c1ccc([C@@H](c2cccc(NC(=O)OC)c2)N2CCN(Cc3ccco3)CC2)cc1 [Compound 7, S-Methyl 3-{{4-[(diethylamino)carbonyl]phenyl}[4-(2-furylmethyl)piperazin-1-yl]methyl}phenylcarbamate] has an IC50 (human μ receptors; [2]) of 93 to 1100 nM and an EC50 [1, 3] of 0.93 to 16.7 nM.

In the case of CCN(CC)C(=O)c1ccc([C@H](c2cccc(NC(=O)OC)c2)N2CCN(Cc3ccco3)CC2)cc1 [Compound 8, R-Methyl 3-{{4-[(diethylamino)carbonyl]phenyl}[4-(2-furylmethyl)piperazin-1-yl]methyl}phenylcarbamate], the IC50 (human μ receptors; [2]) is reported as 93 to 1100 nM and the EC50 [1, 3] is reported as 0.93 to 16.7 nM.

For CCN(CC)C(=O)c1ccc([C@@H](c2cccc(NC(=O)OC)c2)N2CCN(Cc3ccoc3)CC2)cc1 [Compound 9], the IC50 (human μ receptors; [2]) was 93 to 1100 nM and the EC50 [1, 3] was 0.93 to 16.7 nM.

For CCN(CC)C(=O)c1ccc([C@H](c2cccc(NC(=O)OC)c2)N2CCN(Cc3ccoc3)CC2)cc1 [Compound 10, R-Methyl 3-{{4-[(diethylamino)carbonyl]phenyl}[4-(3-furylmethyl)piperazin-1-yl]methyl}phenylcarbamate], the IC50 (human μ receptors; [2]) was 93 to 1100 nM and the EC50 [1, 3] was 0.93 to 16.7 nM.

In the case of CCN(CC)C(=O)c1ccc([C@H](c2cccc(NC(=O)OC)c2)N2CCN(Cc3ncc[nH]3)CC2)cc1 [Compound 11, R-Methyl 3-{{4-[(diethylamino)carbonyl]phenyl}[4-(1H-imidazol-2-ylmethyl)piperazin-1-yl]methyl}phenylcarbamate], the IC50 (human μ receptors; Table 1; read-out: Human μ IC50) is reported as 93 to 1100 nM and the EC50 ([1]; Table 1, read-out: RAT BRAIN EC50) is reported as 0.93 to 16.7 nM.
